# Measurements: PubChem BioAssay AID330 (DTP/NCI, 2004)
# The list does not hold the whole screen: it is rich in T/C values a quarter to a half above the control, in often repeated tests (any T/C) and in doses without a T/C. Further doses and runs are listed elsewhere. T/C: endpoint of the treated group in % of that of the vehicle group. Some doses have a count of surviving animals in place of a T/C: the source files T/C as zero there, which appears to mark a toxic dose or a test without result, not a measured value. Some doses without a T/C left all or most animals alive at the check, yet need not have been tolerated: the source hardly ever lists a survival T/C far under the control, and the zero likely stands for such cases as well. Survivors were counted at the toxicity check, usually on the fifth day, unless a day is given; later deaths do not show. Schedules are NCI's codes, taken here to give the interval after Q, in days (D) or hours (H), and the number of doses after X. Some entries were tested several times; the results are listed from low to high. Brackets with × give the number of equal values in this list. For survival time, this PubChem deposit counts one and a half times the control or more as active, and values a quarter to a half above the control carry no call in these data; other NCI protocols may use other cut-offs. Some T/C values are followed by the survivors on the day toxicity was checked, most often the fifth; where none is given, no animal had died by that day.
# Test system: P388 leukemia ip, CD2F1 mice, survival T/C
# Test: NCI In Vivo Anticancer Drug Screen. Data for tumor model P388 Leukemia (intraperitoneal) in CD2F1 (CDF1) mice
# Settings: T/C endpoint: median survival time, higher T/C = longer survival
# [1] = dose: 3.13 mg/kg/injection, schedule: Q01DX009 (ip), vehicle: saline with Tween-80
# [2] = dose: 50.0 mg/kg/injection, schedule: Q01DX009 (ip), vehicle: saline with Tween-80
# [3] = dose: 50.0 mg/kg/injection, schedule: Q01DX009 (ip), vehicle: saline
# [4] = dose: 100.0 mg/kg/injection, schedule: Q01DX005 (ip), vehicle: saline
# [5] = dose: 200.0 mg/kg/injection, schedule: Q01DX009 (ip), vehicle: saline + alcohol
# [6] = dose: 100.0 mg/kg/injection, schedule: Q01DX009 (ip), vehicle: saline with Tween-80
# [7] = dose: 200.0 mg/kg/injection, schedule: Q01DX009 (ip), vehicle: saline with Tween-80
# [8] = dose: 100.0 mg/kg/injection, schedule: Q01DX005 (ip), vehicle: saline with Tween-80
# [9] = dose: 200.0 mg/kg/injection, schedule: Q01DX009 (ip), vehicle: other
smiles,measurement,setting,value
Cc1ccc(S(=O)(=O)N=S(C)(C)=O)cc1,T/C,"dose: 0.51 mg/kg/injection, schedule: Q01DX009 (ip), vehicle: saline with Tween-80",136 % of control
same,T/C,"dose: 0.78 mg/kg/injection, schedule: Q01DX009 (ip), vehicle: saline with Tween-80",133 and 134 % of control
same,T/C,"dose: 1.17 mg/kg/injection, schedule: Q01DX009 (ip), vehicle: saline with Tween-80",133 % of control
same,T/C,[1],"94, 100, 114 % of control"
same,survivor count,[1],6 of 6
c1ccc(Cn2c(-c3ccccc3)c[n+]3ccsc23)cc1,survivor count,"dose: 25.0 mg/kg/injection, schedule: Q01DX009 (ip), vehicle: saline with Tween-80",0 of 6
same,survivor count,[2],0 of 6
ON=C1C2C=CC=CC1C=C2,survivor count,[3],5 of 6
same,survivor count,"dose: 100.0 mg/kg/injection, schedule: Q01DX009 (ip), vehicle: saline",1 of 6
same,survivor count,"dose: 200.0 mg/kg/injection, schedule: Q01DX009 (ip), vehicle: saline",0 of 6
CC1CCCC2COCN12 (stereo not drawn),T/C,[4],125 % of control
C/C=C1/CC2C=Nc3cc(O)c(OC)cc3C(=O)N2C1 (stereo not drawn),T/C,"dose: 0.25 mg/kg/injection, schedule: Q01DX005 (ip), vehicle: saline + alcohol",135 % of control
same,T/C,"dose: 0.5 mg/kg/injection, schedule: Q01DX005 (ip), vehicle: saline + alcohol",145 % of control
same,survivor count,"dose: 2.0 mg/kg/injection, schedule: Q01DX005 (ip), vehicle: saline + alcohol",6 of 6
same,T/C,"dose: 800.0 micrograms/kg/injection, schedule: Q01DX005 (ip), vehicle: saline + alcohol",139 % of control
same,T/C,"dose: 1000.0 micrograms/kg/injection, schedule: Q01DX005 (ip), vehicle: saline + alcohol",141 % of control
CCCC[As](CCCC)SC1CC(OC(=O)c2ccccc2)C(OC(=O)c2ccccc2)C(COC(=O)c2ccccc2)O1 (stereo not drawn),survivor count,"dose: 100.0 mg/kg/injection, schedule: Q01DX009 (ip), vehicle: saline + alcohol",2 of 6
same,survivor count,[5],0 of 6
COc1ccc([I+]c2cccc(Cl)c2)cc1Cl,T/C,"dose: 1.56 mg/kg/injection, schedule: Q01DX009 (ip), vehicle: saline with Tween-80",135 % of control
same,T/C,"dose: 3.12 mg/kg/injection, schedule: Q01DX009 (ip), vehicle: saline with Tween-80",135 % of control
same,T/C,"dose: 6.25 mg/kg/injection, schedule: Q01DX009 (ip), vehicle: saline with Tween-80",142 and 143 % of control
same,survivor count,[2],1 of 6
same,survivor count,[6],1 of 6
same,survivor count,[7],0 of 6
CN(C)C1=NC(N(C)C)=C2C=C(C(C)(C)C)C=C12,survivor count,"dose: 240.0 mg/kg/injection, schedule: Q01DX005 (ip), vehicle: Klucel (hydroxypropylcellulose) (HPC)",1 of 6
COc1cccc2c1C(=O)c1c(O)c3c(c(O)c1C2=O)CC(O)(/C(C)=N/NC(=O)CCCC(=O)N/N=C(\C)C1(O)Cc2c(O)c4c(c(O)c2C(OC2CC(N)C(O)C(C)O2)C1)C(=O)c1c(OC)cccc1C4=O)CC3OC1CC(N)C(O)C(C)O1 (stereo not drawn),T/C,"dose: 0.2 mg/kg/injection, schedule: Q01DX009 (ip), vehicle: water",126 % of control
same,T/C,"dose: 0.39 mg/kg/injection, schedule: Q01DX009 (ip), vehicle: water",149 % of control
same,T/C,"dose: 0.78 mg/kg/injection, schedule: Q01DX009 (ip), vehicle: water",125 % of control
same,T/C,"dose: 1.56 mg/kg/injection, schedule: Q01DX009 (ip), vehicle: water",138 % of control
same,T/C,"dose: 3.13 mg/kg/injection, schedule: Q01DX009 (ip), vehicle: water",149 % of control [5 of 6 alive]
same,survivor count,"dose: 6.25 mg/kg/injection, schedule: Q01DX009 (ip), vehicle: water",0 of 6 and 5 of 6
COc1ccc(OC)c(/C=C/C2=C(C)C(=O)CC(c3cc(OC)ccc3OC)C2C)c1 (stereo not drawn),survivor count,"dose: 400.0 mg/kg/injection, schedule: Q04DX003 (ip), vehicle: Klucel (hydroxypropylcellulose) (HPC)",6 of 6
CC1=CC(=O)c2c(O)cccc2C1=O,survivor count,"dose: 8.0 mg/kg/injection, schedule: Q01DX009 (ip), vehicle: Klucel (hydroxypropylcellulose) (HPC)",2 of 6
same,survivor count,"dose: 8.0 mg/kg/injection, schedule: Q01DX009 (ip), vehicle: saline with Tween-80",1 of 6
same,survivor count,"dose: 16.0 mg/kg/injection, schedule: Q01DX009 (ip), vehicle: Klucel (hydroxypropylcellulose) (HPC)",0 of 6 (2×)
same,survivor count,"dose: 16.0 mg/kg/injection, schedule: Q01DX009 (ip), vehicle: saline with Tween-80",0 of 6
same,survivor count,"dose: 32.0 mg/kg/injection, schedule: Q01DX009 (ip), vehicle: Klucel (hydroxypropylcellulose) (HPC)",0 of 6
C=C(C)C1CC=C(/C=N/O)CC1 (stereo not drawn),survivor count,[7],6 of 6
CN1CC(C(=O)O)=Nc2c1nc(N)[nH]c2=O,survivor count,[2],6 of 6
same,survivor count,[6],0 of 6
same,survivor count,[7],0 of 6
Nc1nc2nc(N)[nH]c2c(=O)[nH]1,T/C,[8],128 and 148 % of control
same,survivor count,[8],3 of 6
same,survivor count,"dose: 200.0 mg/kg/injection, schedule: Q01DX005 (ip), vehicle: saline with Tween-80",6 of 6
CC(=O)OC1(C)CC2(CCCCC2)N=N1 (stereo not drawn),T/C,[9],148 % of control
CCC(C)n1c(C)nc2cc(C(F)(F)F)cc(N)c21 (stereo not drawn),survivor count,[5],3 of 6
NNc1ccc2cccc([N+](=O)[O-])c2n1,survivor count,[9],3 of 6
same,survivor count,"dose: 400.0 mg/kg/injection, schedule: Q01DX009 (ip), vehicle: other",2 of 6
O=C(Nc1cccc(C(F)(F)F)c1)Nc1nccs1,survivor count,"dose: 200.0 mg/kg/injection, schedule: Q01DX009 (ip), vehicle: Klucel (hydroxypropylcellulose) (HPC)",6 of 6
CCSC(=NC)Nc1ccc(Oc2ccc(Cl)cc2)cc1,survivor count,"dose: 200.0 mg/kg/injection, schedule: Q01DX005 (ip), vehicle: Klucel (hydroxypropylcellulose) (HPC)",0 of 5
CN1CCN(Cc2ccccc2)C(C#N)C1 (stereo not drawn),survivor count,"dose: 200.0 mg/kg/injection, schedule: Q01DX005 (ip), vehicle: water",0 of 6
O=NNc1ccc(Sc2ccc3ccccc3c2)cn1,T/C,"dose: 12.5 mg/kg/injection, schedule: Q01DX009 (ip), vehicle: saline",135 % of control
same,survivor count,"dose: 25.0 mg/kg/injection, schedule: Q01DX009 (ip), vehicle: saline",6 of 6
same,survivor count,[3],2 of 6
CC[N+](C)(C)c1nc(N(C)C)nc(N(C)C)n1,survivor count,"dose: 25.0 mg/kg/injection, schedule: Q01DX005 (ip), vehicle: saline",0 of 6
same,survivor count,"dose: 50.0 mg/kg/injection, schedule: Q01DX005 (ip), vehicle: saline",0 of 6
same,survivor count,[4],0 of 6
same,survivor count,"dose: 200.0 mg/kg/injection, schedule: Q01DX005 (ip), vehicle: saline",0 of 6
CC[PH+](CC)CC.[Cl][Au],survivor count,"dose: 10.0 mg/kg/injection, schedule: Q01DX009 (ip), vehicle: Klucel (hydroxypropylcellulose) (HPC)",3 of 6
same,survivor count,"dose: 20.0 mg/kg/injection, schedule: Q01DX009 (ip), vehicle: Klucel (hydroxypropylcellulose) (HPC)",1 of 6 and 4 of 6
CCc1nc(N)nc(N)c1-c1ccc(NCCCCCCCCCCCCN)c([N+](=O)[O-])c1,T/C,"dose: 60.0 mg/kg/injection, schedule: Q01DX005 (ip), vehicle: saline with Tween-80",130 and 143 % of control
same,survivor count,"dose: 120.0 mg/kg/injection, schedule: Q01DX005 (ip), vehicle: saline with Tween-80",5 of 6
same,survivor count,"dose: 240.0 mg/kg/injection, schedule: Q01DX005 (ip), vehicle: saline with Tween-80",0 of 6
